Read-outs that look alike come from different tables or passages of the source. Results are given in words; binding and its absence hold for the method and conditions named. For some of these results: In cells and extracts the contact can be indirect. Some entries that bind do so weakly or less than the wild type. For some of these results: Sequences can lack the tags named with a protein.
Assays:
[1] = molecular target: T1, Smc6^FLAG (S. cerevisiae) (UniProt Q12749); test: co-IP; yeast cell lysates (log phase, 2 h at 30°C; 50 mM HEPES, 140 mM NaCl, 1 mM EDTA, 1% Triton X-100) with antibody-coupled Dynabeads 2 h at 4°C; washes with 250 mM LiCl, 0.5% NP-40; western blot against the epitope tags or Sir2; done in wild type and in nse3-1 mutant cells (recovery unaltered)
T1 sequence: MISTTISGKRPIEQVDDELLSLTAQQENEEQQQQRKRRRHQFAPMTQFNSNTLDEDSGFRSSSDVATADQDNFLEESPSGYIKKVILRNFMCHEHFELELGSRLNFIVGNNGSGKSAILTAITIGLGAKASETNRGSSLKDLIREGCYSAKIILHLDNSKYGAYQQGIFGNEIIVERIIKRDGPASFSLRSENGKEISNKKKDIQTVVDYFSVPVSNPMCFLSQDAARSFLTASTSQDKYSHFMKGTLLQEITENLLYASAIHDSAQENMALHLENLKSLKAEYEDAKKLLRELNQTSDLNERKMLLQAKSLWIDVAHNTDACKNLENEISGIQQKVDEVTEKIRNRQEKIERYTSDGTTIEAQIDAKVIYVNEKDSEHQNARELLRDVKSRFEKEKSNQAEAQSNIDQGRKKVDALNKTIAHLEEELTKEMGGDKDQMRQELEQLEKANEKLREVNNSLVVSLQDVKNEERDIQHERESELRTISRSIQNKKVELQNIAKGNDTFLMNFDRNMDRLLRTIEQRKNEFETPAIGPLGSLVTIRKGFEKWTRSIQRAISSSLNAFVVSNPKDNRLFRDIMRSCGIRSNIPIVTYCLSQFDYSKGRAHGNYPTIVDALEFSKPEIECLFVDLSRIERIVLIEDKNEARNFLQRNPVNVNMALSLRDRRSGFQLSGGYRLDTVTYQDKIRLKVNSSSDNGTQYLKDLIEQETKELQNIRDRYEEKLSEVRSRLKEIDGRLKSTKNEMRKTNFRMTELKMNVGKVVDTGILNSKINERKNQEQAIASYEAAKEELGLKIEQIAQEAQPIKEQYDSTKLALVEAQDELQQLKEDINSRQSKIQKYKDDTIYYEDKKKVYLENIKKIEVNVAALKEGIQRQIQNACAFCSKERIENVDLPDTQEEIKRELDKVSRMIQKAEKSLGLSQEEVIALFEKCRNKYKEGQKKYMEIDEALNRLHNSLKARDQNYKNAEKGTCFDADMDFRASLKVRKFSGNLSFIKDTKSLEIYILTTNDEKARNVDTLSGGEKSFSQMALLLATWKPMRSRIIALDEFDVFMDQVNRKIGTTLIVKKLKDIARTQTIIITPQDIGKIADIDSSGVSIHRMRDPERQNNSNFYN

Protein sequences, listed by entry. Tags and fused reporters are not part of them.
UniProt P06700: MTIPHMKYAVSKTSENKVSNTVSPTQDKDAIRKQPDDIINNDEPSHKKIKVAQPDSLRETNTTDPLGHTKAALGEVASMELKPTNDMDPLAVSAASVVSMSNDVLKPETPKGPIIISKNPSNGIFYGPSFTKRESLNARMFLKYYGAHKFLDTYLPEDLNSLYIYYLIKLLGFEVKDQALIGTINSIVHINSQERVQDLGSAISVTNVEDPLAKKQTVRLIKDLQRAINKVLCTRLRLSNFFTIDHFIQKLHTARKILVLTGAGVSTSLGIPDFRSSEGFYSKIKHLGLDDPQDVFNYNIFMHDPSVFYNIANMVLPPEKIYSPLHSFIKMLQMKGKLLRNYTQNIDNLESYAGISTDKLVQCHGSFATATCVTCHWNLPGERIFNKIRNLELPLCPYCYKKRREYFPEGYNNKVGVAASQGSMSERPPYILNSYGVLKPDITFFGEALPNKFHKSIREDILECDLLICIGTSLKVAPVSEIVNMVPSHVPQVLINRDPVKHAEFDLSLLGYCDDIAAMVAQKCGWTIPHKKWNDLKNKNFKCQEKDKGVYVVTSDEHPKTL

[2] = molecular target: T2, Csm1^TAP (S. cerevisiae) (UniProt P25651); test: as above
T2 sequence: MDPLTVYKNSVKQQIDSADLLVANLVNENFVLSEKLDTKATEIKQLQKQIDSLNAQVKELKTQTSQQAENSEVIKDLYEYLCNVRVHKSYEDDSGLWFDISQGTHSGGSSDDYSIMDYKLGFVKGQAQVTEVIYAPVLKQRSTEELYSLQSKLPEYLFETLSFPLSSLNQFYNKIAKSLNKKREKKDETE

[3] = molecular target: T3, Heh1^TAP (S. cerevisiae) (UniProt Q03707); test: as above
T3 sequence: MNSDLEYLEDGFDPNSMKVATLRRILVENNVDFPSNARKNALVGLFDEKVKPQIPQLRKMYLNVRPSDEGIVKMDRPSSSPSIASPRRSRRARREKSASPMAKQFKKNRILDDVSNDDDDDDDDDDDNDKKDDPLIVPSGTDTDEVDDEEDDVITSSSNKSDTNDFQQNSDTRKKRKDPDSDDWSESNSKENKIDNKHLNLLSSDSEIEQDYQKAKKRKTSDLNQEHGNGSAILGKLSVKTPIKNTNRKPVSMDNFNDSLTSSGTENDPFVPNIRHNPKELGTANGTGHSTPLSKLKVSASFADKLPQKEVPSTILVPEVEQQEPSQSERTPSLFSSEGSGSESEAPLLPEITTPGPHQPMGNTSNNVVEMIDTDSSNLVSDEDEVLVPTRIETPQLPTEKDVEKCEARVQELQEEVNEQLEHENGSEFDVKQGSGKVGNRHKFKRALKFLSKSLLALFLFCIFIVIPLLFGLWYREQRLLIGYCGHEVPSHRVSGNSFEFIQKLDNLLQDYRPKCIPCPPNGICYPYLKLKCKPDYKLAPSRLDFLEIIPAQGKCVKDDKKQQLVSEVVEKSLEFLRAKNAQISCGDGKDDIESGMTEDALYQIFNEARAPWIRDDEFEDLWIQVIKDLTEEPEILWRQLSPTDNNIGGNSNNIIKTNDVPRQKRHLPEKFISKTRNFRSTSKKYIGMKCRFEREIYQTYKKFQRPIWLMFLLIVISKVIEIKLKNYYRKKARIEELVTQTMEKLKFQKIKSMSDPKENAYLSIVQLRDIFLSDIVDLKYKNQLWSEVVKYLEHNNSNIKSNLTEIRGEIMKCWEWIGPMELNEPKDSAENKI

[4] = molecular target: T1, Smc6^FLAG (S. cerevisiae); test: as above; remark: listed apart in the source
[5] = molecular target: T4, Heh1^MYC (S. cerevisiae) (UniProt Q03707); test: as above
T4 sequence: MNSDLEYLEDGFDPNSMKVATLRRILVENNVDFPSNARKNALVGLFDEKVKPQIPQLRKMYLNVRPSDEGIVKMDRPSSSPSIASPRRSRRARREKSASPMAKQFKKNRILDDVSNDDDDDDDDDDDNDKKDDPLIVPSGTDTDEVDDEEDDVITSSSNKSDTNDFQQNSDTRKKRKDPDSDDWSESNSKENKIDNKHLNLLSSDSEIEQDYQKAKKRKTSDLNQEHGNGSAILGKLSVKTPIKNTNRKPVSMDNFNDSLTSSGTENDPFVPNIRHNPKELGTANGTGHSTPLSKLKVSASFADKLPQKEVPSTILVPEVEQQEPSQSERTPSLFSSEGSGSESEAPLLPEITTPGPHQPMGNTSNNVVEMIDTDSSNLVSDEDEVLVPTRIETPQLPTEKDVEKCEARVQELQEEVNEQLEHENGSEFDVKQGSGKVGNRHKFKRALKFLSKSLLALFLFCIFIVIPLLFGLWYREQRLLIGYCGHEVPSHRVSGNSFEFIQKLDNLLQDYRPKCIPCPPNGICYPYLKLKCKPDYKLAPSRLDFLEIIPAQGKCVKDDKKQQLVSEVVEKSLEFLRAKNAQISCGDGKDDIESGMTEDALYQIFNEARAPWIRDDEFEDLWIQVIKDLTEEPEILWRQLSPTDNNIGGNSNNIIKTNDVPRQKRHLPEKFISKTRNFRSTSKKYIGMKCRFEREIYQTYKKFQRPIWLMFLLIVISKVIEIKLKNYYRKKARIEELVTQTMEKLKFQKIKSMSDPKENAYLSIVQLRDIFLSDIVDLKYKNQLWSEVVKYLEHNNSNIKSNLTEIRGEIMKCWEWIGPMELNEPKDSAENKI

[6] = molecular target: T5, Nse6 (S. cerevisiae) (UniProt P40026); test: two-hybrid; bait (J 965), prey (J 1493) and reporter (J 359) plasmids in strain JC 1280; 6 h in 2% glucose or 2% galactose at 30°C; beta-galactosidase activity with ONPG, OD420 normalised to OD600
T5 sequence: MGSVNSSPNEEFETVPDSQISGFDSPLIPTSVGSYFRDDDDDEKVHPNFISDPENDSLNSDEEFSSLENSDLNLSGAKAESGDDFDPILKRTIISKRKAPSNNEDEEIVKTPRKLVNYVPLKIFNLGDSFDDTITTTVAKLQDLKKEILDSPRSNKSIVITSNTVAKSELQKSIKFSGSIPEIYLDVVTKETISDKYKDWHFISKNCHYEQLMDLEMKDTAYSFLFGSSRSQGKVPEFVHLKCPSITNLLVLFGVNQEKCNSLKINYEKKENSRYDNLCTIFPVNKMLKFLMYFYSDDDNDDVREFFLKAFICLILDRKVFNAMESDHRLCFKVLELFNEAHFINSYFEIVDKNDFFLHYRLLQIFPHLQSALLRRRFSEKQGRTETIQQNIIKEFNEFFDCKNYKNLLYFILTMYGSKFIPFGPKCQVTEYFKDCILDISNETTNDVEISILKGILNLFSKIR

In the case of Sir2 (from UniProt P06700 1-562), the binding [1] is reported as “binds”.

B1: Smc6^FLAG (protein, UniProt Q12749 1-1114)
chain: MISTTISGKRPIEQVDDELLSLTAQQENEEQQQQRKRRRHQFAPMTQFNSNTLDEDSGFRSSSDVATADQDNFLEESPSGYIKKVILRNFMCHEHFELELGSRLNFIVGNNGSGKSAILTAITIGLGAKASETNRGSSLKDLIREGCYSAKIILHLDNSKYGAYQQGIFGNEIIVERIIKRDGPASFSLRSENGKEISNKKKDIQTVVDYFSVPVSNPMCFLSQDAARSFLTASTSQDKYSHFMKGTLLQEITENLLYASAIHDSAQENMALHLENLKSLKAEYEDAKKLLRELNQTSDLNERKMLLQAKSLWIDVAHNTDACKNLENEISGIQQKVDEVTEKIRNRQEKIERYTSDGTTIEAQIDAKVIYVNEKDSEHQNARELLRDVKSRFEKEKSNQAEAQSNIDQGRKKVDALNKTIAHLEEELTKEMGGDKDQMRQELEQLEKANEKLREVNNSLVVSLQDVKNEERDIQHERESELRTISRSIQNKKVELQNIAKGNDTFLMNFDRNMDRLLRTIEQRKNEFETPAIGPLGSLVTIRKGFEKWTRSIQRAISSSLNAFVVSNPKDNRLFRDIMRSCGIRSNIPIVTYCLSQFDYSKGRAHGNYPTIVDALEFSKPEIECLFVDLSRIERIVLIEDKNEARNFLQRNPVNVNMALSLRDRRSGFQLSGGYRLDTVTYQDKIRLKVNSSSDNGTQYLKDLIEQETKELQNIRDRYEEKLSEVRSRLKEIDGRLKSTKNEMRKTNFRMTELKMNVGKVVDTGILNSKINERKNQEQAIASYEAAKEELGLKIEQIAQEAQPIKEQYDSTKLALVEAQDELQQLKEDINSRQSKIQKYKDDTIYYEDKKKVYLENIKKIEVNVAALKEGIQRQIQNACAFCSKERIENVDLPDTQEEIKRELDKVSRMIQKAEKSLGLSQEEVIALFEKCRNKYKEGQKKYMEIDEALNRLHNSLKARDQNYKNAEKGTCFDADMDFRASLKVRKFSGNLSFIKDTKSLEIYILTTNDEKARNVDTLSGGEKSFSQMALLLATWKPMRSRIIALDEFDVFMDQVNRKIGTTLIVKKLKDIARTQTIIITPQDIGKIADIDSSGVSIHRMRDPERQNNSNFYN
For B1, the binding [2] was “binds” and the binding [3] was “binds”.

B2: Heh1^TAP (protein, UniProt Q03707 1-834)
chain: MNSDLEYLEDGFDPNSMKVATLRRILVENNVDFPSNARKNALVGLFDEKVKPQIPQLRKMYLNVRPSDEGIVKMDRPSSSPSIASPRRSRRARREKSASPMAKQFKKNRILDDVSNDDDDDDDDDDDNDKKDDPLIVPSGTDTDEVDDEEDDVITSSSNKSDTNDFQQNSDTRKKRKDPDSDDWSESNSKENKIDNKHLNLLSSDSEIEQDYQKAKKRKTSDLNQEHGNGSAILGKLSVKTPIKNTNRKPVSMDNFNDSLTSSGTENDPFVPNIRHNPKELGTANGTGHSTPLSKLKVSASFADKLPQKEVPSTILVPEVEQQEPSQSERTPSLFSSEGSGSESEAPLLPEITTPGPHQPMGNTSNNVVEMIDTDSSNLVSDEDEVLVPTRIETPQLPTEKDVEKCEARVQELQEEVNEQLEHENGSEFDVKQGSGKVGNRHKFKRALKFLSKSLLALFLFCIFIVIPLLFGLWYREQRLLIGYCGHEVPSHRVSGNSFEFIQKLDNLLQDYRPKCIPCPPNGICYPYLKLKCKPDYKLAPSRLDFLEIIPAQGKCVKDDKKQQLVSEVVEKSLEFLRAKNAQISCGDGKDDIESGMTEDALYQIFNEARAPWIRDDEFEDLWIQVIKDLTEEPEILWRQLSPTDNNIGGNSNNIIKTNDVPRQKRHLPEKFISKTRNFRSTSKKYIGMKCRFEREIYQTYKKFQRPIWLMFLLIVISKVIEIKLKNYYRKKARIEELVTQTMEKLKFQKIKSMSDPKENAYLSIVQLRDIFLSDIVDLKYKNQLWSEVVKYLEHNNSNIKSNLTEIRGEIMKCWEWIGPMELNEPKDSAENKI
With B2 the binding [4] was “binds”.

B3: Csm1^TAP (protein, UniProt P25651 1-190)
chain: MDPLTVYKNSVKQQIDSADLLVANLVNENFVLSEKLDTKATEIKQLQKQIDSLNAQVKELKTQTSQQAENSEVIKDLYEYLCNVRVHKSYEDDSGLWFDISQGTHSGGSSDDYSIMDYKLGFVKGQAQVTEVIYAPVLKQRSTEELYSLQSKLPEYLFETLSFPLSSLNQFYNKIAKSLNKKREKKDETE
B3 was tested, and the binding [5] was “binds” and the binding [4] was “binds”.

B4: Lrs4 (protein, UniProt Q04087 1-347)
chain: MTTLLQLLSNYYKAKLDSERIYNEYVQSQYEFASLDKLNNNKGDPKKVVDETLFLQRQIAQLNKQLQLSFQENEKLLSVQKNQKALYQSKLSSKDAFIDDLKLKLKVEQISVDKHNKERTPSTGRDEQQRNSKAAHTSKPTIHLLSPIVNRDKPNNQTNDRGGNDPDSPTSQRRSRGLRSLLSSGKNTIFDSISKNLDDEINENAHIRNDTTSSKIAGKSPSRLSALQKSPELRKERNNMILKEHILRSKDDQNITSSRKLDNIELSSIGDSTAMTSRSSTVNANDILGNEENDGITKLKRVNKLTSSPVKRDCSTNKKRKLTKQRIATLPNSDEELSNNLNVDEFV
With B4 the binding [6] was “binds”.
